In PubChem BioAssay AID493014 (National Center for Advancing Translational Sciences (NCATS), 2011):
The list shows a part of the results. The main result of the screen is listed elsewhere. These columns were measured beside it and carry no call. Compounds called inactive in the main read-out are mostly missing here. The note in brackets gives the kind of curve behind each potency; many fits are weak.

Test: qHTS Assay to Find Inhibitors of Chronic Active B-Cell Receptor Signaling
Details: ABC-DLBCL IkBa-CBG/CBR reporter, luminescence ratio (green luciferase fused to IkBa over red control in TMD8 lymphoma cells), 4 h
How it was run: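 Doxycycline induced both beetle luciferases in TMD8 lymphoma cells; IKK-driven degradation limits the IkappaBalpha-fused green signal, while red luminescence normalises for cell number and nonspecific effects. Compounds tested up to 46 uM, 4 hrs.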

[1] = measured here: CBR red luminescence, cell number
[2] = measured here: IkBa-CBG green luminescence

For O=C(O)Cc1coc(-c2ccc(F)cc2)n1, the AC50 [1] was 25.9 µM [rising, partial curve, poor fit].
With CCCc1cc(-c2[nH]ncc2-c2ccc3c(c2)OCCCO3)c(O)cc1OC the AC50 [1] was 32.6 µM [falling, single point].
With CCc1ccccc1OCC(=O)OCC(=O)c1c(N)n(C)c(=O)n(C)c1=O the AC50 [1] was 31.6 µM [falling, single point].
For Cc1ccc(CC(=O)O/N=C(\N)c2cccc([N+](=O)[O-])c2)cc1, the AC50 [1] was 20.6 µM [rising, single point].
For CC(C)Oc1ccc(S(=O)(=O)N2CCOCC2)cc1NC(=O)CC1OC(=O)c2ccccc21 (stereo unspecified), the AC50 [1] was 2.31 µM [rising, partial curve, poor fit].
For O=C1N=C(N2C=CC(=C3C=CNC=C3)C=C2)/C(=C/N=NC(=O)c2ccccc2O)S1, the AC50 [1] was 12.6 µM [falling, partial curve, poor fit].
In the case of CCCNC(=O)c1cccc(C(F)(F)F)c1, the AC50 [1] is reported as 6.31 µM [rising, single point].
With Cc1csc(Nc2ccccc2C(F)(F)F)n1 the AC50 [1] was 0.251 µM [rising, full curve, poor fit].
For COc1ccc(N(C)S(=O)(=O)c2cccc(C(=O)Nc3cccc(C(=O)NC4CC4)c3)c2)cc1, the AC50 [1] was 3.66 µM [rising, partial curve, poor fit].
In the case of Cc1ccc(/C=C/C(=O)Nc2cccc(S(=O)(=O)N3CCOCC3)c2)o1, the AC50 [2] is reported as 32.6 µM [rising, partial curve, poor fit].
For COc1ccc2nc(NC(=O)CN3C(=O)NC4(CCCC4)C3=O)sc2c1, the AC50 [1] was 10.3 µM [falling, partial curve, poor fit].
With O=c1[nH]cnc2ccccc12 the AC50 [1] was 0.291 µM [falling, partial curve, poor fit].
For COc1ccc(-c2cc(-c3ccc(OC)cc3)[nH]n2)cc1, the AC50 [1] was 1.78 µM [rising, partial curve, poor fit].
In the case of CCOC(=O)C1=C(C)N=C2SCCC(=O)N2C1c1sccc1C (stereo unspecified), the AC50 [1] is reported as 6.31 µM [falling, full curve, poor fit].
With O=C(O)c1ccccc1-c1ccccc1C(=O)Nc1nccs1 the AC50 [1] was 22.4 µM [falling, partial curve, poor fit].
With O=C(NC(=S)N1CCCc2ccccc21)c1ccco1 the AC50 [1] was 35.5 µM [rising, partial curve, poor fit].
With COc1ccc(N2CCN(C(=O)CCCSc3nc4ccccc4[nH]3)CC2)cc1 the AC50 [1] was 6.51 µM [rising, single point].
For CCOc1ccc2c(c1)C(C)=CC(C)(C)N2S(=O)(=O)c1ccc(NC(C)=O)cc1, the AC50 [1] was 2 µM [rising, partial curve, poor fit] and the AC50 [2] was 0.708 µM [falling, full curve, poor fit].
For Cc1ccc(Cl)c(Cn2cnc3c(cnn3C(C)(C)C)c2=O)c1F, the AC50 [1] was 1.03 µM [rising, partial curve].
In the case of c1ccc(-c2nn3cnnc3c3ccccc23)cc1, the AC50 [1] is reported as 5.01 µM [rising, full curve, poor fit].
With CC(C)NC(=O)c1ccccc1NC(=O)C1COc2ccccc2O1 (stereo unspecified) the AC50 [1] was 1.46 µM [rising, full curve].
With Cc1cccc(N(C)C(=S)Oc2ccc3ccccc3c2)c1 the AC50 [1] was 9.2 µM [rising, partial curve].
For CS(=O)(=O)c1cnc(-c2ccccc2)nc1Sc1ccc(F)cc1, the AC50 [1] was 0.562 µM [rising, full curve, poor fit].
With CCO[C@@H]1OC(C(=O)N2CCCCCCC2)=C[C@H](c2ccc(C(F)(F)F)cc2)[C@H]1CCCO the AC50 [1] was 35.5 µM [falling, single point].
In the case of COc1ccc(CCn2c(=N)c(C(=O)NCCN3CCOCC3)cc3c(=O)n4ccccc4nc32)cc1OC, the AC50 [1] is reported as 31.6 µM [rising, single point].
In the case of Cc1ccc(-n2nc(C)c3c(C)c(CCC(=O)O)c(C)nc32)cc1, the AC50 [1] is reported as 35.5 µM [falling, single point].
With CCN(CC)c1ccc(/C=N/NC(=O)CC(C)C)cc1 the AC50 [1] was 5.01 µM [rising, single point].
In the case of CCOc1ccccc1CNC(=O)c1cc(-c2ccc(C)c(C)c2)nc2ccccc12, the AC50 [1] is reported as 3.16 µM [rising, single point].
For CC(C)c1nnc(NC(=O)Cc2ccc(Br)cc2)s1, the AC50 [1] was 6.51 µM [rising, single point].
With CCOCCCN(C(=O)Cn1nnc(-c2ccc(C)o2)n1)C(C(=O)NC1CCCC1)c1ccc(C)o1 (stereo unspecified) the AC50 [1] was 0.282 µM [rising, full curve, poor fit].
In the case of COC(=O)c1c(NC(=O)/C=C/C(=O)O)sc(C)c1-c1ccc(C)c(C)c1, the AC50 [1] is reported as 20.6 µM [falling, partial curve].
With NC(=O)c1oc2ccccc2c1NC(=O)c1nc2ccccc2s1 the AC50 [1] was 2.82 µM [falling, full curve].
For CCc1nnc(NS(=O)(=O)c2ccc(NC(=S)NC(=O)c3cccs3)cc2)s1, the AC50 [1] was 15.8 µM [falling, single point].
In the case of Cc1ccc(/C=C2/C(=O)c3ccc(C(=O)O)cc3C2=O)o1, the AC50 [1] is reported as 11.2 µM [falling, partial curve].
With CC(C)CCn1cnc2c(cnn2-c2ccc(F)cc2)c1=O the AC50 [1] was 1.12 µM [rising, full curve, poor fit].
In the case of COc1ccc(N(CC(=O)Nc2ccccc2C(=O)NCCc2ccccc2)S(C)(=O)=O)cc1OC, the AC50 [1] is reported as 29.1 µM [falling, single point].
With Cc1cc(C)cc(OCC(=O)OCC(=O)c2ccc3c(c2)NC(=O)CO3)c1 the AC50 [1] was 6.51 µM [rising, single point].
For CC(C)Cc1ccc(C(C)C(N)=NCCc2ccccc2)cc1 (stereo unspecified), the AC50 [1] was 25.1 µM [falling, single point].
With Cc1ccc(-c2noc(-c3ccccc3C(=O)NCC3CCCO3)n2)cc1 (stereo unspecified) the AC50 [1] was 16.4 µM [rising, partial curve, poor fit].
For CC(=NC1CCCCC1)C1=C(O)c2ccccc2C1=O, the AC50 [1] was 35.5 µM [falling, partial curve, poor fit].
With Cc1cc(C)c(C(=O)N2CCCC(C(=O)c3cc(F)ccc3F)C2)o1 (stereo unspecified) the AC50 [1] was 0.501 µM [rising, full curve, poor fit].
With Cc1cc(C(=O)N/N=C/C=C/c2ccc3c(c2)OCO3)n[nH]1 the AC50 [1] was 3.16 µM [falling, partial curve, poor fit].
With CCc1cccc(NC(=O)CCSCCC(=O)Nc2cccc(CC)c2)c1 the AC50 [1] was 20.6 µM [falling, single point].
For COc1cc2ncnc(NCc3ccc(F)cc3)c2cc1OC, the AC50 [1] was 6.31 µM [rising, single point].
With Cc1c(C(=O)NCc2ccc3c(c2)OCO3)oc2ccc(S(=O)(=O)N3CCCC3)cc12 the AC50 [1] was 1.16 µM [rising, full curve, poor fit].
With Cc1ccc(Cl)cc1C1=CC(=O)C[C@H](c2ccc(F)cc2)C1 the AC50 [1] was 0.00411 µM [rising, full curve, poor fit].
For O=C(NNC(=S)NCc1ccc(Cl)cc1)c1ccc(Br)o1, the AC50 [1] was 35.5 µM [falling, single point].
In the case of CCOc1ccc2nc(SCc3ccc(F)cc3)sc2c1, the AC50 [1] is reported as 16.4 µM [rising, single point].
In the case of COc1ccc(S(=O)(=O)n2nc(OC(=O)c3ccccc3Br)cc2N)cc1, the AC50 [1] is reported as 8.91 µM [falling, partial curve, poor fit].
For C=CCn1c(SCC(=O)Nc2ccccc2C)nnc1-c1ccncc1, the AC50 [1] was 9.2 µM [falling, single point].
For O=C(CCCSc1nc2sc3c(c2c(=O)[nH]1)CCC3)NCCO, the AC50 [1] was 25.1 µM [falling, single point].
For CCN(CC)S(=O)(=O)c1ccc(N2CCCC2)c(C(=O)OCC(=O)Nc2cc(C)on2)c1, the AC50 [1] was 4.47 µM [rising, partial curve, poor fit].
With Cc1ccc2[nH]c(=O)c(CN(Cc3ccco3)S(=O)(=O)c3c(C)ccc4nsnc34)cc2c1 the AC50 [1] was 25.9 µM [rising, partial curve].
With CCOC(=O)C1=C(c2ccccc2)NC(=O)NC1c1ccsc1 (stereo unspecified) the AC50 [1] was 14.1 µM [falling, partial curve, poor fit].
In the case of COc1ccc(/C=N/NC2=NS(=O)(=O)c3ccccc32)cc1OC, the AC50 [1] is reported as 31.6 µM [rising, single point].
For CC1=CC(C)(C)Nc2ccc(OC(=O)CN3C(=O)c4ccccc4C3=O)cc21, the AC50 [1] was 18.4 µM [falling, single point].
For O=C(CCNC(=O)c1ccc([N+](=O)[O-])cc1)Nc1nc2ccccc2[nH]1, the AC50 [1] was 6.51 µM [rising, single point].
With Cc1nc(SCc2ccc(C(=O)O)cc2)c2c(C)c(C)sc2n1 the AC50 [1] was 35.5 µM [falling, single point].
In the case of CC(C)(C)c1ccc(CN2N=C(/C=C/c3ccccc3)CCC2=O)cc1, the AC50 [1] is reported as 35.5 µM [falling, single point].
For O=C(NCc1ccco1)C1CC(c2cc(C(F)(F)F)cc(C(F)(F)F)c2)=NO1 (stereo unspecified), the AC50 [1] was 31.6 µM [rising, single point] and the AC50 [2] was 22.4 µM [falling, single point].
In the case of COC(=O)c1ccc(S(=O)(=O)NCc2ccco2)o1, the AC50 [1] is reported as 1.41 µM [falling, single point].
With O=C(COc1ccc2ccccc2c1)NC1=NCCS1 the AC50 [1] was 29.1 µM [falling, single point].
For C(=N\Nc1nc2ccccc2[nH]1)/c1cccs1, the AC50 [1] was 14.1 µM [falling, partial curve] and the AC50 [2] was 12.6 µM [falling, single point].
